Values of other authors in US6051557A, “Methods of enhancing functioning of the upper gastrointestinal tract” (1149336 Ontario Inc., priority 1998, dated 2000).

Settings: healthy adult humans, cited from earlier work

In the case of “His-Ala-Asp-Gly-Ser-Phe-Ser-Asp-Glu-Met-Asn-Thr-Ile-Leu-Asp-Asn-Leu-Ala-Ala-Arg-Asp-Phe-Ile-Asn-Trp-Leu-Ile-Gln-Thr-Lys-Ile-Thr-Asp [GLP-2]”, the “amount normally circulating in the plasma, after nutrient ingestion” value (after nutrient ingestion) is given as ~225 pmol/mL and the “amount normally circulating in the plasma, resting state” value (resting state) is given as ~151 pmol/mL.
